The series addresses recombinant murine PD-L1 (mouse) (UniProt Q9EP73). Briefly: binding assay. The following applies: PBS, room temperature, 30 min, 2x10^5 CT26 cells in 250 uL, three PBS washes, flow cytometry; Y = Bmax X/(Kd + X), n = 2; recombinant protein; label: FAM (CT26 assays); single-stranded DNA.

Chains of the proteins cited; added tags and fusions are not shown. Residues count along the entry.
UniProt Q9EP73, 19-239: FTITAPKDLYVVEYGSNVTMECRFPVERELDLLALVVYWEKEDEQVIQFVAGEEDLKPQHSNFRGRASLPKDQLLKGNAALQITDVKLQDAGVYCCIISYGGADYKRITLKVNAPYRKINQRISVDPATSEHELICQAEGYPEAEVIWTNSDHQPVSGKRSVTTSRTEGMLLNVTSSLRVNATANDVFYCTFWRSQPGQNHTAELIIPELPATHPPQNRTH

For at least one entry, the source does not settle the construct or the ends of the probe.

Results on one sequence are retold here after publication PMC7921949.

As for “ACGGGCCACATCAACTCATTGATAGACAATGCGTCCACTGCCCGT [free PD-L1 aptamer (Apt)]”, the Kd turned out to be 72 nM.
